According to patent US20250281572A1, “COMPOSITIONS AND METHODS FOR TREATING AND PREVENTING METABOLIC DISORDERS” (The Johns Hopkins University, priority 2022, published 2025):
At least one peptide structure holds a part that was inferred or is arguable (an end, a ring closure or a residue). Some compounds share one wording; it may come from a single statement. No end group written: not given here.

What was measured:
Hepatoma HepG2 cells = assay: Apoptosis and necrosis in hepatoma HepG2 cells; assay type: cell-based, human; conditions: 300 μM
[1] = system: mouse primary hepatocytes; assay: Glucose production assay in mouse primary hepatocytes; assay type: cell-based
[2] = system: breast cancer JIMT1 cells; assay: Growth of breast cancer JIMT1 cells; assay type: cell-based
melanoma HT144 cells = assay: Growth of melanoma HT144 cells; assay type: cell-based
[3] = system: human tumorigenic kidney Hek293 cells; assay: Viable cell number of tumorigenic kidney Hek293 cells; assay type: cell-based
[4] = system: pancreatic adenocarcinoma BxPC3 cells; assay: Growth of pancreatic adenocarcinoma BxPC3 cells; assay type: cell-based
Hek293 cells = assay: Apoptosis in Hek293 cells; assay type: cell-based, human
[5] = system: AMPKα1S496 and AMPKα2S491; assay: AMPK phosphorylation in breast cancer MCF-7 cells; assay type: cell-based; conditions: 300 μM, 16
[6] = system: small cell lung cancer H69PR cells; assay: Growth of small cell lung cancer H69PR cells; assay type: cell-based
B lymphoma cells = assay: Growth of B lymphoma cells; assay type: cell-based
tumor cells = assay: BrDu incorporation assay; assay type: cell-based, human; conditions: 300 μM for either 6 h or 16 h
[7] = system: colon cancer Caco2 tumor cells; assay: Apoptosis in colon cancer Caco2 tumor cells; assay type: cell-based, human
[8] = system: human primary hepatocytes; assay: Mitochondrial size in human primary hepatocytes; assay type: cell-based; conditions: 50 μM; treated with 50 nM of insulin and glucagon
primary hepatocytes [9] = assay: ROS measurement (CellROX) in primary hepatocytes from elderly mouse; assay type: cell-based; conditions: 16 h; concentration-dependent; versus control peptide TAT
[10] = system: breast cancer MCF-7 cells; assay: Apoptosis, necrosis and p53 signaling in breast cancer MCF-7 cells; assay type: cell-based
[11] = system: human primary hepatocytes; assay: Glucose production assay in human primary hepatocytes; assay type: cell-based; conditions: 50 μM; treated with 0.2 mM cAMP
AMPK = assay: Measurement of AMPK activity (ADP-Glo) in cAMP-treated primary hepatocytes; assay type: cell-based; conditions: 50 μM
primary hepatocytes [12] = assay: Mitophagic flux (mt-Keima) in primary hepatocytes; assay type: cell-based
primary hepatocytes [13] = assay: Mitochondrial respiratory activity (Seahorse) in primary hepatocytes from an obese patient; assay type: cell-based, human; conditions: 25 μM
AMPKα1/2 = assay: AMPK phosphorylation and gluconeogenic gene mRNA in human primary hepatocytes; assay type: cell-based
primary hepatocytes [14] = assay: Mitochondrial membrane potential and cellular ATP levels in primary hepatocytes; assay type: cell-based
AMPKα1 [15] = assay: AMPK phosphorylation in cAMP-treated Hepa1-6 cells; assay type: cell-based; conditions: cAMP (0.2 mM)
AMPKα1 [16] = assay: AMPK-MFF signaling phosphorylation in mouse primary hepatocytes; assay type: cell-based
db/db mice = assay: Intraperitoneal treatment of obese db/db mice; assay type: in vivo, mouse
primary hepatocytes [17] = assay: Mitochondrial respiratory activity (Seahorse) in mouse primary hepatocytes; assay type: cell-based; conditions: 5 μM; primary hepatocytes from elderly mouse (78 weeks of age)
[18] = 50 μM, insulin (25 nM) and glucagon (15 nM), primary hepatocytes
[19] = 50 PM, primary hepatocytes of db/db mice
[20] = intraperitoneal 15 nMol/g/day for 10 days

**Q.** How did the increase of apoptosis (Hepatoma HepG2 cells; 24 h treatment, compared to control TAT) turn out when YGRKKRRQRRRTPQRSCSAAGLHR [Pa2-491] was run?
**A.** over 16 fold

**Q.** And the necrosis (Hepatoma HepG2 cells; increased necrosis observed)?
**A.** did not reach the statistical significance

**Q.** What about the glucose production ([1]; primary hepatocytes from elderly mice (78 weeks of age), to less degree compared to Pa496m) of the same sequence?
**A.** significantly suppress

**Q.** And the “growth of breast cancer JIMT1 cells” value [2]?
**A.** could inhibit

**Q.** What about the “growth of melanoma HT144 cells” value (melanoma HT144 cells) of the same sequence?
**A.** could inhibit

**Q.** What about the “viable cell number of Hek293 cells” value ([3]; 100 μM) of the same sequence?
**A.** significantly decreased

**Q.** And the “viable cell number of Hek293 cells” value ([3]; 200 μM)?
**A.** significantly decreased

**Q.** And the “growth of pancreatic adenocarcinoma BxPC3 cells” value [4]?
**A.** could inhibit

**Q.** And the apoptosis (Hek293 cells)?
**A.** could activate apoptosis

**Q.** And the “phosphorylation of AMPKα1S496 and AMPKα2S491” value [5]?
**A.** could block

**Q.** What about the “phosphorylation of AMPKα at T172 (biomarker of AMPK activation)” value [5] of the same sequence?
**A.** increasing

**Q.** And the “growth of small cell lung cancer H69PR cells” value [6]?
**A.** could inhibit

**Q.** And the “growth of B lymphoma cells” value (B lymphoma cells)?
**A.** could inhibit

**Q.** What about the “tumor cells' proliferation” value (tumor cells) of the same sequence?
**A.** significantly decreased

**Q.** Which results are given for YGRKKRRQRRRTPQRSGSVSNYRSCQR [Pa496h]?
**A.** apoptosis [7]: could activate apoptosis; mitochondrial size [8]: significantly reduce; reactive oxygen species (ROS) (primary hepatocytes [9]): significantly reduced; apoptosis ([10]; 300 μM, 4 h): could activate apoptosis; necrosis ([10]; 300 μM, 4 h): not the necrosis; phosphorylation of p53 at S15 ([10]; MCF7 cells): increased; signaling pathway of apoptosis ([10]; MCF7 cells): activated; growth of breast cancer JIMT1 cells [2]: could inhibit; growth of melanoma HT144 cells (melanoma HT144 cells): could inhibit; viable cell number of Hek293 cells ([3]; 200 μM): significantly decreased; growth of pancreatic adenocarcinoma BxPC3 cells [4]: could inhibit; glucose production [11]: significantly decreased; growth of small cell lung cancer H69PR cells [6]: could inhibit; growth of B lymphoma cells (B lymphoma cells): could inhibit; enzymatic activity of AMPK (AMPK): increased; Keima tagged mitochondria in lysosome (primary hepatocytes [12]; 100 μM): increased; time of peak of Keima tagged mitochondria in lysosome (primary hepatocytes [12]; 100 μM): 2 h; start of mitophagy activation (primary hepatocytes [12]; 100 μM, time-course experiment): 1 h; Keima-tagged mitochondria in lysosome (primary hepatocytes [12]; after 16 h of treatment): significantly reduced; mitochondrial respiration (primary hepatocytes [13]): significantly increased; mRNA levels of G6pc and Pck1 (AMPKα1/2; 50 μM, treated with 0.2 mM cAMP): suppressed; AMPK activation (AMPKα1/2; pretreatment with 50 μM): AMPK activation; AMPKα1/2 phosphorylation at S496/491 (AMPKα1/2; pretreatment with 50 μM): blocked; tumor cells' proliferation (tumor cells): significantly decreased; cellular ATP levels (primary hepatocytes [14]; 50 μM): significantly increased

**Q.** YGRKKRRQRRRTPQRSGSISNYRSCQR [Pa496m] was tested. Which “AMPKα phosphorylation at T172” value (AMPKα1 [15]) did it give?
**A.** increase

**Q.** What about the “cAMP stimulated AMPKα1 phosphorylation at S496” value (AMPKα1 [15]; N-terminal TAT compared with C-terminal TAT) of the same sequence?
**A.** stronger inhibition

**Q.** And the cAMP-stimulated glucose production ([1]; 50 μM, hepatocytes with expression of AMPKα1S496A mutant protein)?
**A.** could not significantly suppressed

**Q.** What about the “insulin and glucagon stimulated AMPKα1S496 phosphorylation” value (AMPKα1 [16]; [18]) of the same sequence?
**A.** effectively inhibited

**Q.** What about the “phosphorylation levels of AMPKα at T172 and MFF” value (AMPKα1 [16]; [18]) of the same sequence?
**A.** increased

**Q.** And the AMPKα1S496 phosphorylation (AMPKα1 [16]; [19])?
**A.** significantly decreased

**Q.** What about the “AMPKα phosphorylation at T172” value (AMPKα1 [16]; [19]) of the same sequence?
**A.** increased

**Q.** And the “activation of AMPK and CBP phosphorylation at S436” value (AMPKα1 [16]; primary hepatocytes from obese db/db mice)?
**A.** concentration-dependent manner

**Q.** What about the “mitochondrial oxygen consumption rate of primary hepatocytes from treated mice” value (db/db mice; intraperitoneal 15 nMol/g/day for 6 days, versus control TAT peptide) of the same sequence?
**A.** significantly higher

**Q.** What about the “expression of G6pc and Pck1 in the liver” value (db/db mice; [20]) of the same sequence?
**A.** suppressed

**Q.** And the hyperglycemia (db/db mice; [20])?
**A.** significantly improved

**Q.** And the “mitochondrial size in the liver” value (db/db mice; [20])?
**A.** significantly reduced

**Q.** What about the “phosphorylation of AMPKα1 at S496 and AMPKα2 at S491 in the liver” value (db/db mice; [20]) of the same sequence?
**A.** blocked

**Q.** What about the “phosphorylation of CBP at S436 in the liver” value (db/db mice; [20]) of the same sequence?
**A.** augmented

**Q.** What about the mitochondrial respiration (primary hepatocytes [17]) of the same sequence?
**A.** significantly increased

**Q.** What about the “tumor cells' proliferation” value (tumor cells) of the same sequence?
**A.** significantly decreased

**Q.** What about the mitochondrial membrane potential (primary hepatocytes [14]; FIG. 4d) of the same sequence?
**A.** did not reduce
